No constants are given. Whether binding was seen depends on the method and setting. Binding seen in cells or lysates may run through a third protein. These calls come from enrichment with a bait or labelling near it, and not all partners need be listed. Tags and fused reporters may be left off the sequences shown.
Each substance was assayed against T1, Flag-tagged PMEPA1a (prostate transmembrane protein, androgen induced 1, isoform a), wild type (human) (UniProt Q969W9) (assay: affinity purification with mass spectrometry; U87MG cells transfected with Flag-tagged PMEPA1a or Flag-empty-vector; Co-IP in RIPA lysate, Protein A/G magnetic beads; LC-MS/MS of the isolated complexes).
T1 sequence: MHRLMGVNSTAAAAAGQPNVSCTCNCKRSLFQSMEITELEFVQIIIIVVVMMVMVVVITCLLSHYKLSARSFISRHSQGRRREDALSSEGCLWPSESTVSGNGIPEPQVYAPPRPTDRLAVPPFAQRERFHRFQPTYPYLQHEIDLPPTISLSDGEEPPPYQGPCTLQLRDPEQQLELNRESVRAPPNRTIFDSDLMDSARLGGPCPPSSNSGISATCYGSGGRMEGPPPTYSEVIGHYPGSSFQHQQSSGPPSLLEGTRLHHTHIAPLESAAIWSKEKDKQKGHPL

Protein sequences, listed by entry. Tags and fused reporters are not part of them.
UniProt P46934: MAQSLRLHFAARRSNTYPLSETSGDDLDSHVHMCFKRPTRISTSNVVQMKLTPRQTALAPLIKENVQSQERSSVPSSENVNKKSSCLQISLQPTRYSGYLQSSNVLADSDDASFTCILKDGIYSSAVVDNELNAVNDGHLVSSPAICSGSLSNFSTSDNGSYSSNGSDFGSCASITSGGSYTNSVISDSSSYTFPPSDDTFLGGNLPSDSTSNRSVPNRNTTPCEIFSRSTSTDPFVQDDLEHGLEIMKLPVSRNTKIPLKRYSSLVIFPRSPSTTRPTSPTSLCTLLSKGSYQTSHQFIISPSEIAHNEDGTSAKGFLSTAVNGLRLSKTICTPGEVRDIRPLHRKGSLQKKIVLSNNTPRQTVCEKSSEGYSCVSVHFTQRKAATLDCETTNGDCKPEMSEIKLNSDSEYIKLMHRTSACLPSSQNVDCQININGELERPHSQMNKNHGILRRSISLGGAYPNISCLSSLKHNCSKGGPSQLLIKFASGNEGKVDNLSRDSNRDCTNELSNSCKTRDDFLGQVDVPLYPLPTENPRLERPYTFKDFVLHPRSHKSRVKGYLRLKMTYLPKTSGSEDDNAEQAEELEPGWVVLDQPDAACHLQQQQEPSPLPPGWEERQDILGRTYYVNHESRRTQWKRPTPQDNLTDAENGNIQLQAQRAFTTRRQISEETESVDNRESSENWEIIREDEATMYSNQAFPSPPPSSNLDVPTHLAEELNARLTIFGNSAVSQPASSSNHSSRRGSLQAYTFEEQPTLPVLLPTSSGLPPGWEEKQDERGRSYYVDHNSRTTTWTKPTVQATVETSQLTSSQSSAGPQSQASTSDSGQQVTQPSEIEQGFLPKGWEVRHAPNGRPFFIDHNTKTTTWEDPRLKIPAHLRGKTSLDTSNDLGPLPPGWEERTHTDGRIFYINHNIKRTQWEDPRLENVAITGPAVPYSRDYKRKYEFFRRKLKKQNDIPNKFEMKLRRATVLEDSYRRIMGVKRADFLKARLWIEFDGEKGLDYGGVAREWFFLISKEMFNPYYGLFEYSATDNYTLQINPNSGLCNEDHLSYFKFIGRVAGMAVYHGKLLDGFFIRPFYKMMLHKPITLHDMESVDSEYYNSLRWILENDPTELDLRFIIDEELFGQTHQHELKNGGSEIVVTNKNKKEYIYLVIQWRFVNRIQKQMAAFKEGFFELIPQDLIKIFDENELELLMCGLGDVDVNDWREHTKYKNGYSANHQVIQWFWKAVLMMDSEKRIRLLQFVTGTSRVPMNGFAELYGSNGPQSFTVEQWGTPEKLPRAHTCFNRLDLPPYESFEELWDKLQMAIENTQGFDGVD
UniProt Q16531: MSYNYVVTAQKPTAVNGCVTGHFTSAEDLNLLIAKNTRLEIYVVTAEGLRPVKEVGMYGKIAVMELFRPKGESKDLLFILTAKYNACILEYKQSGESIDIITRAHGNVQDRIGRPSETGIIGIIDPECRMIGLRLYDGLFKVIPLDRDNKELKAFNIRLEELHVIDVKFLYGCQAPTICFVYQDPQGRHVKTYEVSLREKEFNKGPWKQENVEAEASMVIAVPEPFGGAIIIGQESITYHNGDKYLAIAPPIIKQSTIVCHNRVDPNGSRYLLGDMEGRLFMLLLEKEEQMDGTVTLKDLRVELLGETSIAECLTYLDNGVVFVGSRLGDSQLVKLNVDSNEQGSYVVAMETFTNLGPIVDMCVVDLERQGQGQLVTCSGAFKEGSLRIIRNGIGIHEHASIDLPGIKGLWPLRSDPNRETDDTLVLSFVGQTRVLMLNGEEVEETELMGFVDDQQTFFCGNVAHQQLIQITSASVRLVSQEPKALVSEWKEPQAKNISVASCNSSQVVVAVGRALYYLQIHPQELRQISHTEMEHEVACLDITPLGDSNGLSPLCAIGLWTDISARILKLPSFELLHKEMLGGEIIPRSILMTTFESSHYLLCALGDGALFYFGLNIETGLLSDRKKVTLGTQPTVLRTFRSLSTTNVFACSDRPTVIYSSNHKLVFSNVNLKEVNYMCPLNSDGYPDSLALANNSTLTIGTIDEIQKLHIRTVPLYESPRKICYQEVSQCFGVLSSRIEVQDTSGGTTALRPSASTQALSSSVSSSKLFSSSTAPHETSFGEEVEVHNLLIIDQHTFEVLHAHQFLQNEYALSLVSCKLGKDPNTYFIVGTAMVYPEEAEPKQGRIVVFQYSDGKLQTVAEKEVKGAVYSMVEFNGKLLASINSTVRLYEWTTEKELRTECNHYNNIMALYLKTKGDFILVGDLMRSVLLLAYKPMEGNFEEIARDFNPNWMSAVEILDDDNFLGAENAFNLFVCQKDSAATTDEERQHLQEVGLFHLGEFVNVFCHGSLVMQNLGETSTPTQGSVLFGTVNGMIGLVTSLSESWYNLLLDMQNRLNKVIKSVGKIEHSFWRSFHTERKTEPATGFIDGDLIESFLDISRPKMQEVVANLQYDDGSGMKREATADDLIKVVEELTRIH
UniProt P09429: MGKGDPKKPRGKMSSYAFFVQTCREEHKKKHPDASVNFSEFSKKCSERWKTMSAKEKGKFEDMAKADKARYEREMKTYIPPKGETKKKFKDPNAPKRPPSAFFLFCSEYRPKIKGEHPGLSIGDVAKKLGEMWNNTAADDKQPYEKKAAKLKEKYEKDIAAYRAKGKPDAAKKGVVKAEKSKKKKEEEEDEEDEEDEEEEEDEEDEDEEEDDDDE
UniProt P21796: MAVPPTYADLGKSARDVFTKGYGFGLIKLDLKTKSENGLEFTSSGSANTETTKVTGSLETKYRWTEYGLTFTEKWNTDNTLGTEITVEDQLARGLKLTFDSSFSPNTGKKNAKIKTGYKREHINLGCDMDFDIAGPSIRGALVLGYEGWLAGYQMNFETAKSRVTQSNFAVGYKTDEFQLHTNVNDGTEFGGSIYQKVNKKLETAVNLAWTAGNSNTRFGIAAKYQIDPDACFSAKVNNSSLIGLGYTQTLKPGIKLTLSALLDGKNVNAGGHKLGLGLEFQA
UniProt P35579: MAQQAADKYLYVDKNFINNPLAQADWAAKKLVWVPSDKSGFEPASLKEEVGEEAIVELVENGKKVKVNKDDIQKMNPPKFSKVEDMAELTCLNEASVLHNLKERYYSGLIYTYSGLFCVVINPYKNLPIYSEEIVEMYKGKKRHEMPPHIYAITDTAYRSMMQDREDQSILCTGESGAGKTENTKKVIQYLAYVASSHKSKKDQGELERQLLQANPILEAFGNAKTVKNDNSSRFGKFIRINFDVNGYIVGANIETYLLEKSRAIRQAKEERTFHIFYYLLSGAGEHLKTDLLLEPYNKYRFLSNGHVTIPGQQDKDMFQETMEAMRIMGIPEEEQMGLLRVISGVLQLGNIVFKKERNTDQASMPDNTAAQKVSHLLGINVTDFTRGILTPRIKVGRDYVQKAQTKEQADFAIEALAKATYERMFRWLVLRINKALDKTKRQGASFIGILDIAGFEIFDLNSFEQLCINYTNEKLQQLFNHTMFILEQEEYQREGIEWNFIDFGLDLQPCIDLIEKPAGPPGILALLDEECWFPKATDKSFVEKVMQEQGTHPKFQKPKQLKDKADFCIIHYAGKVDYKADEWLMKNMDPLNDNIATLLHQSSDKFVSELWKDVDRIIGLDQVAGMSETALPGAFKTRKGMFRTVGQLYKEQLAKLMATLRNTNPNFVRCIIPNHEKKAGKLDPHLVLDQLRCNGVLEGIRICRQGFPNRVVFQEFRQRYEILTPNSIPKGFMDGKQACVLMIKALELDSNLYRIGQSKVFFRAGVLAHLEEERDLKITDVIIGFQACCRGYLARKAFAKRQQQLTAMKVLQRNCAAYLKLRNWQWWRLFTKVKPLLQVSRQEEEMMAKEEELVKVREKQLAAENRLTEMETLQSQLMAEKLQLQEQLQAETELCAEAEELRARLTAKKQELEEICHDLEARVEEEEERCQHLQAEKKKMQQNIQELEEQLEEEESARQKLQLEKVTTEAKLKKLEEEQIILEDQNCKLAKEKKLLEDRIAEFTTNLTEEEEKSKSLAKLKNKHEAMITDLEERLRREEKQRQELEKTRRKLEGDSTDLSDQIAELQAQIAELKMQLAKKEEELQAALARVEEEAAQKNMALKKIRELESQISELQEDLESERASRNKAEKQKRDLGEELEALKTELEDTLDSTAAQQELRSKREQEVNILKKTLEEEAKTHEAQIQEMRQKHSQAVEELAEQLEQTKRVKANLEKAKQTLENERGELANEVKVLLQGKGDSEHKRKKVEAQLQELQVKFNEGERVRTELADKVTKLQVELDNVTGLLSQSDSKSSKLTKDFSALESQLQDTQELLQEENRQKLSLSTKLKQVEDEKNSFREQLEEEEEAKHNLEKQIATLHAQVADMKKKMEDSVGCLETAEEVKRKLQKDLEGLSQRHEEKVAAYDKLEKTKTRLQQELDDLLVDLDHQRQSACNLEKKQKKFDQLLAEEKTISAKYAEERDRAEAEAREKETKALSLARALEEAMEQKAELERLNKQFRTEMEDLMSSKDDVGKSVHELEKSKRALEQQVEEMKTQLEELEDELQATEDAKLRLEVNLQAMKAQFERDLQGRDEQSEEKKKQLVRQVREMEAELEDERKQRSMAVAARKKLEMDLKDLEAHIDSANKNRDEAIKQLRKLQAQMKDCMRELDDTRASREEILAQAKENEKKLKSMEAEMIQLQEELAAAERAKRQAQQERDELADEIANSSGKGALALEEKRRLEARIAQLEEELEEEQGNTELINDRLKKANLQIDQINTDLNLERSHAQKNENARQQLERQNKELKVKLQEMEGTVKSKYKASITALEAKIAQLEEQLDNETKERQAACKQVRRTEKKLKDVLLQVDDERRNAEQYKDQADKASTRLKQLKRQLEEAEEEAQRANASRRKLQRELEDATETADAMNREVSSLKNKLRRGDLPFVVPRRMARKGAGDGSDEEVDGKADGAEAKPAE

binding	Substance
binds	NEDD4 (neural precursor cell expressed, developmentally downregulated 4), endogenous (from UniProt P46934 1-1319) (enzyme)
binds	DDB1, endogenous (from UniProt Q16531 1-1140)

Second part, the substance before the results:

Substance	binding
HMGB1, endogenous (from UniProt P09429 1-215)	binds
VDAC1, endogenous (from UniProt P21796 1-283)	binds
MYH9, endogenous (from UniProt P35579 1-1960)	binds

From paper PMC6989403
